# Results from patent US8119660B2, “Small-molecule inhibitors of the androgen receptor” (The Regents of the University of California, priority 2007, dated 2012).
# Test system: mice
compound,measurement,setting,value
"Cc1cc(/C=C/c2ccc3cc(N(C)C)ccc3[n+]2C)c(C)n1-c1ccccc1 [PP, pyrvinium pamoate]",Toxic dose,"mice, doses from 0.1 to 10 mg/kg tested",10 mg/kg
same,Tolerated dose,"mouse, in vivo",5 mg/kg
